Data on one molecule can be found in patent publication EP4652204A2.

By UniProt entry, the sequences of proteins in these tests, tags left out. Where a name states a change or a piece, a line headed by the entry shows the natural chain unless it says otherwise.
UniProt Q8NHJ6: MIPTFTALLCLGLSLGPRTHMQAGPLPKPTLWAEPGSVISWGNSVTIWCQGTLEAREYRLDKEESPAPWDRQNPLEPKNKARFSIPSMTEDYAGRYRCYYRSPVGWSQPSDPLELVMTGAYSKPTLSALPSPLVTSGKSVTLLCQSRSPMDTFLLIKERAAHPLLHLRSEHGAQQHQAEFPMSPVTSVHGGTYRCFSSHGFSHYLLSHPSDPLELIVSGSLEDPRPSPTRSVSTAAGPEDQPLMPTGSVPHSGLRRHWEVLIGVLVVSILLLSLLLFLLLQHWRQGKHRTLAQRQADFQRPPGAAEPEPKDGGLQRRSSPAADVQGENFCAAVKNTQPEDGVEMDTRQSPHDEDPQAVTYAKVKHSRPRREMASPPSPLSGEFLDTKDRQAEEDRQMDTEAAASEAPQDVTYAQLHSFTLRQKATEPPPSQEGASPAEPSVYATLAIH

For experiment [1], the target named is recombinant ectodomain of LILRB4 common variant (human) (UniProt Q8NHJ6). Put plainly: ELISA. For orientation: ELISA stands for enzyme-linked immunosorbent assay.
Experiment [2] shares this target. The experiment can be described thus: ELISA (FIG. 14 legend).

These are yes or no findings as the source states them, for the method shown. Some results given as binding are weak or reduced against the parent protein; the word gives no strength. Where a sequence is shown, tags or fusion partners need not be part of it.

B1: recombinant Fc mutated mIgG2a anti-LILRB4 mAb (clone: ZM3.1) (antibody, V domains shown)
VH: EVQLQQSGAELVKPGASVKLSCTASGFNIKDTYVHWVKQRPEQGLEWIGRIDPANGHTKYDPKFQVRATITTDTSSTTAYLQLSSLTSEDTAVYYCGTEGIFDGYPFAYWGQGTLVTVSA
VL: DIVMTQSHKFMSTSVGDRVSITCKASQDVGTAVAWYQQKPGQSPKVLIYWASTRHTGVPDRFTGSGSGTDFTLTISNVQSEDLADYFCHQYSTYPLTFGGGTKLEIK
Consider B1, for which the binding result in experiment [1] and in experiment [2] was “binds” each time.
